# This is one part of the list. Shown are side measurements of this screen, not its main read-out; they come without a call. Compounds called inactive in the main read-out are mostly missing here. The note in brackets gives the kind of curve behind each potency; many fits are weak.
# Assay: qHTS Assay for Modulators of Lamin A Splicing
# Details: HeLa LMNA splicing GFP/RFP minigene ratio, 48 h
# How it was run: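 Read-out is the ratio of GFP to DsRed2 object intensity, acquired by 488 nm laser-scanning cytometry on HeLa lamin A-EGFP minigene reporter cells. Compound incubation 48 hrs at 37 °C in Opti-MEM with 2% FBS; DMSO 0.5% final.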
# [1] = measured here: GFP splicing reporter channel
# [2] = measured here: RFP viability control channel
Compound,AC50 [1],AC50 [2]
O=C(/C=C/C=C/c1ccccc1)CC1(O)C(=O)N(CCc2ccccc2)c2ccccc21 (centres undefined),"17.8 µM [falling, single point]","25.1 µM [falling, single point]"
Cc1cc(C)c2c(N)c3ccccc3nc2n1,"11.2 µM [falling, single point]","7.94 µM [falling, partial curve, poor fit]"
CC(C)(C)OC(=O)N1CCC(c2c(C(=O)NCCc3ccccc3)cnn2-c2ccc(F)cc2F)CC1,"0.158 µM [rising, full curve, poor fit]",–
COc1ccc(-c2c(C)c3ccc(O)c(CN4CCN(CCO)CC4)c3oc2=O)cc1OC,"22.4 µM [falling, single point]","0.0224 µM [falling, full curve, poor fit]"
Cc1nc2ccccc2n1C1CCN(C(=O)Nc2ccccc2)CC1,–,"39.8 µM [falling, partial curve, poor fit]"
CCOc1cc(N2CCOCC2)c(OCC)cc1NC(=O)c1ccc(NC(C)=O)cc1,"3.98 µM [falling, full curve, poor fit]","4.47 µM [falling, single point]"
COc1ccc(CC(=O)NCc2nnc(SCC(=O)Nc3ccccc3)n2C)cc1,"0.00447 µM [falling, full curve, poor fit]",–
O=c1c2cn[nH]c2nc(SCc2c(F)cccc2F)n1-c1ccc(Cl)cc1,"12.6 µM [falling, partial curve]",–
O=c1c2cc(N3CCOCC3)ccc2[nH]c(=S)n1Cc1cccc(Cl)c1,–,"0.501 µM [falling, full curve, poor fit]"
CC(C)(C)c1cc(C(F)(F)F)nc(SCCCNC(=O)c2ccco2)n1,–,"22.4 µM [rising, single point]"
O=C(Nc1nc2ccc(SC(F)F)cc2s1)c1ccc(NS(=O)(=O)c2ccc(F)c(F)c2)cc1,"35.5 µM [falling, single point]","35.5 µM [falling, single point]"
COC1C(OC(=O)/C=C/C=C/C=C/C=C/C(=O)O)CCC2(CO2)C1C1(C)OC1CC=C(C)C (centres undefined),"35.5 µM [falling, single point]","15.8 µM [falling, single point]"
CCOC(=O)c1sc(N)c(C#N)c1CSc1nc2ccc(C)cc2[nH]1,"3.98 µM [rising, partial curve]",–
CCn1c(-c2ccccc2Cl)nn(CC(=O)NCCc2ccccc2)c1=S,–,"22.4 µM [rising, single point]"
CS(=O)(=O)N(CC(=O)N1CCN(C(c2ccccc2)c2ccccc2)CC1)C1CCCCC1,"12.6 µM [rising, partial curve]","12.6 µM [rising, partial curve]"
COc1ccc2cc(/C=N/NC(=O)c3ccc(CN(c4cccc(Cl)c4Cl)S(C)(=O)=O)cc3)c(Cl)nc2c1,"0.891 µM [rising, full curve]","2 µM [rising, full curve]"
CN1C(=O)/C(=C/c2ccc3c(c2)OCO3)N=C1c1ccccc1,"11.2 µM [rising, partial curve, poor fit]",–
O=C1C(c2ccc(F)cc2)N(CCc2ccccc2)C(=O)CN1C1CCCCCC1 (centres undefined),–,"0.282 µM [falling, partial curve]"
COc1cc(/C=N/NC(=O)C(=O)/C=C2\NC3(CCCC3)Cc3ccccc32)ccc1O,–,"15.8 µM [rising, single point]"
CCOc1ccc(N2CC(O)=C(c3nc4ccccc4c(=O)[nH]3)C2=N)cc1,"1.58 µM [rising, partial curve]","5.01 µM [rising, partial curve, poor fit]"
CCN1CCN(CC(=O)N/N=C/c2ccc(F)cc2F)CC1,–,"6.31 µM [rising, full curve]"
COc1ccc(-n2c(-c3ccc(Br)cc3)c[n+]3c2CCc2ccccc2-3)cc1,–,"5.62 µM [rising, single point]"
O=C(/C=C/c1ccc(Cl)cc1Cl)c1cccnc1,"0.794 µM [rising, full curve, poor fit]","12.6 µM [rising, partial curve, poor fit]"
CC(C)C(c1nnnn1C1CCCC1)N1CCCc2ccccc21 (centres undefined),"35.5 µM [rising, single point]",–
COc1ccc(/C=N/OCC(=O)N=Nc2c(O)[nH]c3ccc(Br)cc23)cc1OC,"1.12 µM [rising, full curve]","1.12 µM [rising, full curve]"
O=C(Oc1ccc2ccc(=O)oc2c1)c1cccs1,"0.00355 µM [falling, full curve, poor fit]","0.00447 µM [falling, full curve, poor fit]"
O=C1OC(c2ccccc2)=C/C1=C/N1CCOCC1,–,"0.891 µM [rising, full curve]"
Cc1ccc(-c2cc(C(=O)N/N=C/C=C/c3ccco3)c3ccccc3n2)cc1C,–,"10 µM [rising, partial curve]"

Compound,AC50 [1],AC50 [2]
CN(C(=O)CSc1nc(-c2ccc(F)cc2)cs1)C1CCS(=O)(=O)C1 (centres undefined),"14.1 µM [rising, single point]",–
CCOC(=O)c1[nH]c(C)c(C(=O)NCc2ccc(Cl)cc2)c1C,–,"35.5 µM [rising, single point]"
CN(C)S(=O)(=O)c1ccc(Cl)c(C(=O)Nc2ccccc2[N+](=O)[O-])c1,–,"20 µM [rising, single point]"
CN(C)c1cccc(C(=O)NCc2ccccc2)c1,–,"0.224 µM [falling, full curve, poor fit]"
CCOC(=O)C(NC(C)=O)C(=O)Nc1ccc(C(C)(C)C)cc1 (centres undefined),"0.0562 µM [falling, full curve]",–
Cc1c(C(=O)C(=O)N2CCCc3ccccc32)c2ccccc2n1C,–,"6.31 µM [rising, full curve]"
CN(C)S(=O)(=O)c1cc(NC(=O)CSc2ncc(C(F)(F)F)cc2Cl)ccc1Cl,"8.91 µM [rising, partial curve]","12.6 µM [rising, partial curve]"
CCc1cccc(C)c1NC(=O)CSc1nnc(CCCOc2ccc(Cl)cc2Cl)n1C,–,"12.6 µM [rising, partial curve, poor fit]"
Cc1ccc(OCC(=O)Nc2ccccc2OCc2cc(=O)n3ccccc3n2)cc1C,–,"15.8 µM [rising, partial curve, poor fit]"
Cc1cccc(NC(c2ccccc2F)c2ccc3ccc(C)nc3c2O)n1 (centres undefined),"35.5 µM [falling, single point]",–
CCc1cccc(C)c1NC(=O)Cn1nc(C)c2nn(-c3ccc(Cl)cc3)c(C)c2c1=O,"22.4 µM [falling, single point]",–
CCN(CC(=O)NC(C)(C)C)C(=O)CCl,–,"35.5 µM [rising, single point]"
COc1ccc(-c2nc(C#N)c(N3CCCCCC3)o2)cc1OC,–,"14.1 µM [rising, single point]"
Cc1cc(=O)[nH]c(SCC(=O)Nc2nc(-c3ccccc3)c(-c3ccccc3)o2)n1,–,"8.91 µM [rising, partial curve, poor fit]"
Nc1nc2ccc(-c3nc4ccccc4o3)cc2s1,–,"7.08 µM [falling, full curve, poor fit]"
Cc1ccc2c(c1)nnn2C1CCN(C(=O)C2CCCCC2)CC1,"15.8 µM [rising, single point]","12.6 µM [rising, partial curve]"
O=c1nc2c(O)cccn2c2c1c(=O)[nH]c1ccccc12,"0.112 µM [falling, full curve, poor fit]",–
O=C(O)CC(NC(=O)Cc1ccccc1)c1cc([N+](=O)[O-])ccc1Cl (centres undefined),–,"0.00316 µM [falling, full curve, poor fit]"
O=C(CSc1nnc(Nc2ccccc2F)s1)c1cc2ccccc2o1,"35.5 µM [rising, single point]","35.5 µM [rising, single point]"
O=C(Cc1csc2nc(-c3ccc(F)cc3)cn12)NCc1ccccc1,"35.5 µM [falling, single point]",–
O=C(CCCc1nc(-c2ccc(Cl)cc2)no1)Nc1cccnc1,"3.55 µM [rising, full curve]","7.08 µM [rising, full curve]"
C=CCc1ccccc1OCC(O)CN1CCN(c2ccccc2OC)CC1 (centres undefined),"0.316 µM [rising, partial curve, poor fit]","7.08 µM [rising, partial curve]"
CN(C)c1ccc(C(=O)Nc2nnc(-c3ccc(Cl)cc3)o2)cc1,–,"7.08 µM [rising, partial curve]"
O=C(NC1CCCCCC1)c1cc(S(=O)(=O)N2CCOCC2)ccc1N1CCCCC1,"14.1 µM [rising, single point]","22.4 µM [rising, single point]"
COc1ccc(Br)cc1-c1nc(CCl)cs1,–,"10 µM [falling, partial curve, poor fit]"
CCOC(=O)C(=Cc1ccc(-c2ccsc2C(=O)OC)o1)C(=O)OCC,"20 µM [falling, partial curve, poor fit]","31.6 µM [falling, partial curve, poor fit]"
CC(=O)c1cccc(NC(=O)CSc2nc3ccccc3nc2Cc2ccc(F)cc2)c1,"0.126 µM [rising, full curve]",–

# A second format for three compounds above.
Compound	AC50 [1]	AC50 [2]
O=c1nc2c(O)cccn2c2c1c(=O)[nH]c1ccccc12	0.112 µM [falling, full curve, poor fit]	–
O=C(O)CC(NC(=O)Cc1ccccc1)c1cc([N+](=O)[O-])ccc1Cl (centres undefined)	–	0.00316 µM [falling, full curve, poor fit]
O=C(CSc1nnc(Nc2ccccc2F)s1)c1cc2ccccc2o1	35.5 µM [rising, single point]	35.5 µM [rising, single point]
